Data published in PubChem BioAssay AID493014 (National Center for Advancing Translational Sciences (NCATS), 2011).
About 170 (0.05%) of roughly 340,000 compounds were called active. Inconclusive means that the source gave no clear call. Such entries were picked first, then a sample of the others. Calls come from the whole dose curve; as a rule, active = well fitted inhibition curve with a large enough effect in the signal ratio, with a control signal flat (not every such curve was filed as active); inconclusive = small, poorly fitted or top-dose-only effect, or effect the other way, or a change in a side signal; inactive = flat fitted curve, though single readings scatter; the % refers to the signal ratio. Where the call is inconclusive, the potency comes from a doubtful curve fit.

Assay: qHTS Assay to Find Inhibitors of Chronic Active B-Cell Receptor Signaling;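 for activity change, negative = inhibition: plate controls were basal doxycycline-induced cells for no effect and cells given 10 µM MG132 for full effect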
Details: ABC-DLBCL IkBa-CBG/CBR reporter, luminescence ratio (green luciferase fused to IkBa over red control in TMD8 lymphoma cells), 4 h; activity change, negative = inhibition: at 46.1 µM (top of the series)
Procedure, shortened: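 Compounds up to 46 uM were incubated four hours with TMD8 cells whose green CBG68 luciferase is fused to IkappaBalpha; red CBR luminescence normalised the signal, and concentration-effect curves were fitted to fusion, red and ratio data.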
Potency is the fitted concentration of half-maximal effect.

SMILES	activity change, negative = inhibition	Potency
O=C(CN1C(=O)S/C(=C\c2cccs2)C1=O)Nc1ccc(O)cc1C(=O)O	inconclusive: -0.364%	–
COc1cccc(/C=C2\SC(=S)N(CCCC(=O)N(CCO)c3ccccc3)C2=O)c1	inconclusive: 216%	–
CCOC(=O)c1ccc(CNC(=O)c2cc(C(C)(C)C)oc2C)o1	inconclusive: 2.89%	–
O[C@@H]1[C@@H](O)C=C2CCN3Cc4cc5c(cc4[C@H]1C23)OCO5 (stereo partly drawn)	–	inconclusive: 1.3 µM [falling, partial curve]
COCCCC1CCN(C(=O)c2cc(COc3cc(C)ccc3C)on2)CC1	inactive: 0.842%	–
NS(=O)(=O)c1ccc(NC(=S)NC(=O)C2CCCCC2)cc1	inconclusive: 3.29%	–
CO/N=C/C(C#N)=C/c1cc(C(=O)c2ccccc2)cn1C	inactive: -2.7%	–
CC(C)(C)NC(=O)CSc1nc2cccnc2n1C1CCCCC1	inconclusive: -0.435%	–
CCOC(=O)C1=C(OCc2ccc(Cl)cc2)C2C=C(C)C=CC2N=C1 (stereo not drawn)	inconclusive: -9.36%	–
CCN1CCN(c2nc3c(c(=O)[nH]c(=O)n3C)n2CCCSc2ncccn2)CC1	inconclusive: 0.839%	–
COc1ccccc1NC(=O)c1cc2cc(Br)ccc2oc1=N	inconclusive: 15%	–
COc1ccc(N=C2SC(CC(=O)Nc3ccc(F)cc3)C(=O)N2Cc2ccco2)cc1 (stereo not drawn)	inconclusive: -11.7%	–
Cn1c2ccccc2c2cc(/C=N/NC(=O)c3ccccc3F)ccc21	–	inconclusive: 22.4 µM [falling, single point]
Cc1ccc2c(C)c(C(=O)N3CCC(O)(c4ccccc4)CC3)oc2c1C	inconclusive: -1.21%	–
COc1ccc(/C=C\C(=O)NCC(=O)N/N=C/c2ccc(O)cc2O)cc1	inconclusive: -21.8%	–
Cn1c(=O)cc(OCC(=O)NCc2cccnc2)c2ccccc21	inconclusive: 6.54%	–
O=C(CSc1nnc(-c2ccccc2)c(-c2ccccc2)n1)NCC1CCCO1 (stereo not drawn)	inactive: -2.44%	–
CCC(=O)Nc1sc(Cc2ccccc2)c(C)c1C(N)=O	–	inconclusive: 1.12 µM [rising, full curve]
C=CCn1c(C)csc1=Nc1ccccc1C	–	inconclusive: 35.5 µM [rising, partial curve, poor fit]
CCCc1cc(=O)oc2cc(OCC(=O)NCCCN3CCCC3=O)ccc12	inconclusive: -0.874%	–
Fc1cccc(/C=N/Nc2ccc3ccccc3n2)c1	inconclusive: 440%	–

Full records as entered above:
C=CCn1c(C)csc1=Nc1ccccc1C as listed: Potency: inconclusive: 35.5 µM [rising, partial curve, poor fit]
CCC(=O)Nc1sc(Cc2ccccc2)c(C)c1C(N)=O as listed: Potency: inconclusive: 1.12 µM [rising, full curve]
CO/N=C/C(C#N)=C/c1cc(C(=O)c2ccccc2)cn1C as listed: activity change, negative = inhibition: inactive: -2.7%

(more compounds)

SMILES	activity change, negative = inhibition	Potency
CC(=O)Nc1ccc(N=Nc2ccc(O)cc2)cc1	inactive: 5.8%	–
COCCCNC(=O)c1ccc(CS(=O)(=O)c2cccc(C(F)(F)F)c2)o1	inconclusive: 1.45%	–
CC(C)(O)c1[nH]c2ccc(C(F)(F)F)cc2c1C(C)(C)O	inconclusive: 5.48%	–
Cc1nc2c(C(=O)NCCC(C)C)c[nH]n2c(=O)c1Cc1ccccc1F	inconclusive: 11.6%	–
CCCNC(=O)COc1coc(CN2CCN(c3ccc(F)cc3)CC2)cc1=O	inconclusive: -15.5%	–
COc1ccc2ccccc2c1/C=N/NC(=S)NCCN1CCOCC1	–	active: 20 µM
COc1ccc(OCC(O)CNS(=O)(=O)c2cccs2)cc1 (stereo not drawn)	inconclusive: 1.4%	–
CCN1/C(=C(\O)c2ccccc2)C(=O)c2ccccc2S1(=O)=O	inconclusive: 7.1%	–
N#C/C(=C\c1ccco1)C(=O)NCc1ccccc1	inconclusive: 4.6%	–
O=C(CSc1cc(Cl)ccc1Cl)Nc1ccc(N2CCOCC2)cc1	inconclusive: -11%	–
O=[N+]([O-])C(=C1SCCS1)C(=C(Cl)Cl)N1CCCCC1	inconclusive: 24%	–
CC(=O)c1cccc(NC(=O)NCCS(C)=O)c1 (stereo not drawn)	inconclusive: 5.23%	–
COc1ccccc1N1CCN(C(c2cc3cc(C)ccc3[nH]c2=O)c2nnnn2C2CCCC2)CC1 (stereo not drawn)	inactive: 0.225%	–
O=C(Nc1ccc(Cc2ccncc2)cc1)C1CCC(N2C(=O)C3CC=CCC3C2=O)CC1 (stereo not drawn)	inconclusive: 0.409%	–
CC(=O)Nc1cnc(NC(=O)c2cccc(F)c2)cc1C	–	inconclusive: 18.4 µM [falling, partial curve]
COc1ccccc1NC(=O)C1=C(C)Nc2nnnn2C1c1ccccn1 (stereo not drawn)	inconclusive: -17.7%	–
CCC1(c2ccc(Cl)cc2)NC(=O)N(CC(=O)NC2CCCCCC2)C1=O (stereo not drawn)	inactive: -13.3%	–
O=C(CCl)N(c1ccc(Cl)cc1)c1c[nH]c2ccccc12	inconclusive: 0.85%	–
O=C(NC(=S)Nc1ccc(N2CCOCC2)cc1)c1ccco1	inconclusive: 8.67%	–
Cc1sc2ncnc(NCCCO)c2c1C	inactive: -4.83%	–
COc1cc(NC(=O)CN2C(=O)c3ccccc3Sc3ccc(C(=O)N4CCOCC4)cc32)cc(OC)c1OC	–	inconclusive: 10 µM [falling, partial curve, poor fit]

By substructure: the compounds so far with a tert-butyl group.
SMILES	activity change, negative = inhibition	Potency
CCOC(=O)c1ccc(CNC(=O)c2cc(C(C)(C)C)oc2C)o1	inconclusive: 2.89%	–
CC(C)(C)NC(=O)CSc1nc2cccnc2n1C1CCCCC1	inconclusive: -0.435%	–

Remaining list, next part:

SMILES	activity change, negative = inhibition	Potency
NS(=O)(=O)c1ccc(NC(=O)/C=C/c2ccco2)cc1	inconclusive: 1.91%	–
Cc1[nH]c(C)c(S(=O)(=O)NCc2ccc(Cl)cc2)c1C(=O)N1CCCC1	inactive: 2.94%	–
Cc1ccsc1/C=C/C1=NCCCN1C	inconclusive: -4.05%	–
CCc1nnc(NC(=O)C2CCC(CNc3c(N4CCCCC4)c(=O)c3=O)CC2)s1 (stereo not drawn)	inconclusive: 6.09%	–
Cc1ccsc1/C=N/NC(=O)C(=O)NCC(C)C	–	inconclusive: 14.1 µM [falling, partial curve]
O=C(CSc1nnc(-c2ccncc2)n1Cc1ccccc1)NC1CCCCC1	inconclusive: -12.4%	–
COc1cccc(C(=O)Nc2ccc(-n3nncc3-c3ccccc3)cc2)c1OC	–	inconclusive: 31.6 µM [falling, single point]
CCCNC(=O)c1cc(-c2ccccc2)c(N2CCCCC2)s1	inconclusive: -0.234%	–
Cc1ccc(Sc2ncnc3onc(C)c23)cc1	–	inconclusive: 12.6 µM [falling, partial curve]
COc1ccc(C(=O)Nc2ccc3c(c2)C(=O)c2ccccc2C3=O)cc1OC	inactive: 0.0921%	–
COc1cc(NC(=O)N2CCOCC2)cc(OC)c1	inconclusive: 0.139%	–
CCOC(=O)/C=C/C(=O)OCC(=O)Nc1ccc(OC)c(Cl)c1	inconclusive: -6.57%	–
Fc1ccc(CSc2nnc(-c3ccco3)o2)cc1	inconclusive: 15.9%	–
O=C(c1cnc2ccc(Cl)cc2c1Cl)N1CCOCC1	inactive: 5.85%	–
C=CC[C@H](CC(=O)N(CCO)Cc1ccccc1)C(=O)N[C@H](COC(=O)[C@@H](CC=C)Cc1ccc(F)cc1)Cc1ccccc1	inconclusive: -4.81%	–
CC1(C)CC(=O)C(C=Nc2ccc(N)cc2)=C(O)C1	inconclusive: -18.5%	–
CCCCCCc1nc2ccccc2c(=O)n1N	inconclusive: 7.55%	–
CN(C)C(=O)CCc1ccc2c3c([nH]c2c1)[C@]1(CCC2CCCC2)[C@@H](C(=O)N2CCOCC2)C[C@H](CC(=O)NCc2cccc(C(F)(F)F)c2)C(=O)N1CC3	inactive: 1.4%	–
Cc1ccc(C(=O)Nc2nn(C)c3cccc(F)c23)cc1	–	inconclusive: 1 µM [falling, full curve, poor fit]
COc1ccc(C2CC(=O)N3C(=C2C#N)SCC3(O)c2ccccc2)cc1 (stereo not drawn)	inactive: -8.35%	–
CC(=O)c1cccc(NC(=O)COC(=O)c2cccc(N3C(=O)c4ccccc4C3=O)c2)c1	–	inconclusive: 20.6 µM [falling, partial curve]

SMILES	activity change, negative = inhibition	Potency
C=CCN1C(=O)/C(=C\c2ccc(OC(=O)c3ccco3)c(OC)c2)SC1=S	inconclusive: 12.2%	–
C=C(C)C(=O)Nc1cccc(C2=NOC3(C2)C[C@H](C(N)=O)N(C(=O)c2ccccc2C(=O)c2ccccc2)C3)c1 (stereo partly drawn)	inactive: -1.08%	–
O=C(NN=C1CCCCCCCCCCC1)c1cccnc1	–	inconclusive: 35.5 µM [falling, single point]
O=C(CSc1ncnc2scc(-c3ccccc3)c12)NC1CCS(=O)(=O)C1 (stereo not drawn)	inconclusive: -17.6%	–
O=C(CCN1CCN(c2ccccc2)CC1)c1ccc(Cl)cc1	inconclusive: -18.2%	–
COc1ccccc1NC(=O)Cc1noc(CSc2n[nH]c(N)n2)n1	inconclusive: 5.45%	–
CCOC(=O)c1[nH]c(C)c(C)c1C	inconclusive: -12.4%	–
O=C(CCNC(=O)C1CCN(S(=O)(=O)c2ccc(F)cc2)CC1)NCc1ccc(F)cc1	inactive: -0.449%	–
COc1cc(C(=O)N/N=C/c2cn(Cc3ccccc3)c3ccccc23)ccc1O	–	inconclusive: 5.01 µM [falling, partial curve]
O=c1cc(CSc2nnc(Nc3ccccc3)s2)nc2sccn12	inactive: -3.35%	–
COc1ccc(NC(=O)c2sc(N)nc2-c2ccccc2)cc1	–	active: 12.6 µM
COc1ccc(C(=O)N2CCc3ccccc32)cc1	inactive: -4.56%	–
Cn1nnnc1Sc1ncnc2scc(-c3cccs3)c12	inconclusive: -0.903%	–
C=CCn1c(Cc2cccs2)nnc1SCC(=O)Nc1ccc(C(=O)OCC)cc1	inconclusive: -2.95%	–
CCN(CC)S(=O)(=O)c1cccc(NC(=S)NC(=O)/C=C/c2ccc(S(=O)(=O)N3CCOCC3)cc2)c1	–	inconclusive: 29.1 µM [falling, single point]
NC(=O)c1oc2ccccc2c1NC(=O)c1ccccc1	–	inconclusive: 0.0366 µM [rising, full curve, poor fit]
Cc1ccc(OCC(=O)NNC(=S)NC(=O)C2CCCCC2)c(C)c1	inactive: 6.76%	–
C/C(=N\NC(=O)C(O)c1ccccc1)c1ccc(Cl)cc1 (stereo not drawn)	–	inconclusive: 15.8 µM [falling, single point]
O=C(O)CCN(CC(=O)c1ccc(Cl)cc1)S(=O)(=O)c1ccc([N+](=O)[O-])cc1	inconclusive: -14%	–
COc1ccc(CNC(=O)OCCN2CCN(S(=O)(=O)c3ccc(C)cc3)CCC2=O)cc1	inconclusive: -1.63%	–
